Measured values: publication PMC5354800
Results are given in words; binding and its absence hold for the method and conditions named. Binding seen in cells or lysates may run through a third protein. Some binding calls cover weakened binding; strength is not graded here.

By UniProt entry, the sequences of proteins in these tests, tags left out.
UniProt P04198: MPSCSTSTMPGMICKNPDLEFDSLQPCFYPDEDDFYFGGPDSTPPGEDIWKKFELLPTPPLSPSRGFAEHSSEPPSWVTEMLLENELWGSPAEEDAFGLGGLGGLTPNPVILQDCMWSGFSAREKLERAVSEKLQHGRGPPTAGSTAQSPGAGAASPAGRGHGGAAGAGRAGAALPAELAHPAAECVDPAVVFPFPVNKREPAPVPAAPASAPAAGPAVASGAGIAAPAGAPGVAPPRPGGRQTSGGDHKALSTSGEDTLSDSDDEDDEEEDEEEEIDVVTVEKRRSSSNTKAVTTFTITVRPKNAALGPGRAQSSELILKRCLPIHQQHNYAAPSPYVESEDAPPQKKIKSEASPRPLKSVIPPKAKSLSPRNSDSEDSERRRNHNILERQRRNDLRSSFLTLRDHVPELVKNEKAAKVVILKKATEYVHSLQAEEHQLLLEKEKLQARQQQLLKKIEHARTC
UniProt P61244: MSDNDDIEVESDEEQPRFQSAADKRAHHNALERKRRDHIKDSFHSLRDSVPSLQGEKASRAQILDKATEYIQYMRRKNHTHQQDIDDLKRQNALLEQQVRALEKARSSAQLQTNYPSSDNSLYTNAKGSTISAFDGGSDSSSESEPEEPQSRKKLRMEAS

Target: 3xFLAG-MYCN (UniProt P04198)
Assay: co-IP; 0,3 mg protein extract of HEK 293T cells co-transfected with 3xFLAG-LSD1 and 3xFLAG-MYCN, cells treated with TCP, SP2509 or vehicle; precipitated with MYCN antibody; blots with MYCN, LSD1 and MAX antibodies

binding: binds
Substance: MAX (from UniProt P61244 1-160)
